Experimental data: PubChem BioAssay AID1508597 (Cure First, 2020)

- Assay: 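Survival screen with siRNA in ovarian cancer cells derived from patients, with or without rucaparib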 (primary screen)
- Cells: human ovarian carcinoma lines grown from tumours: OCI-P5x (papillary serous) and OCI-C5x (clear cell)
- Reagent: siRNA pool against human genes, 1.25 pmol siRNA per well
- Time to read-out: 72 h or 96 h, depending on the cell culture
- Conditions: rucaparib 20 µM (about IC30) or vehicle, present until read-out
- Rucaparib or vehicle: Vehicle
- Cell line: OCI-P5x (serous)
- Read-out: 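ATP luminescence measured at 72 or 96 h according to the culture, then normalised and expressed as percent viability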
- Reading the numbers: viability, normalised: higher = more viable cells remaining
- Rule for the call: 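a well counts as a hit if its normalised viability is under 80 percent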
- Meaning of the calls: active = viability under 80%; inactive = viability 80% or more
Shown is a random part of the about 2,100 reagents, under one of the conditions tested. 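Calls flag viability under 80% in either arm, not effects specific to rucaparib; the reference for percent is not stated.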 Entries without a mark were called inactive. Reagent sequences are not shown. Not given: the 100% reference.

| target gene | technical replicate | viability, normalised (%) |
| --- | --- | --- |
| MAP2K5 | 1 | 53.1 (active) |
| MAP2K5 | 2 | 64.3 (active) |
| MAP2K5 | 3 | 80.3 |
| MAPK3 | 1 | 103 |
| MAPK3 | 2 | 68.4 (active) |
| MAPK3 | 3 | 99.7 |
| STK16 | 1 | 69.2 (active) |
| STK16 | 2 | 80.3 |
| STK16 | 3 | 34.2 (active) |
| ROCK2 | 1 | 78.9 (active) |
| ROCK2 | 2 | 75.7 (active) |
| ROCK2 | 3 | 84.1 |
| PRDM10 | 1 | 59.4 (active) |
| PRDM10 | 2 | 62.1 (active) |
| PRDM10 | 3 | 88.8 |
| ENPP5 | 1 | 65.4 (active) |
| ENPP5 | 2 | 71.4 (active) |
| ENPP5 | 3 | 95.3 |
| THOC1 | 1 | 71.8 (active) |
| THOC1 | 2 | 66.7 (active) |
| THOC1 | 3 | 66.5 (active) |
| ZFAT | 1 | 59.3 (active) |
| ZFAT | 2 | 70.9 (active) |
| ZFAT | 3 | 66.9 (active) |

Quoted from the listing for reference:
| target gene | technical replicate | viability, normalised (%) |
| --- | --- | --- |
| MAP2K5 | 2 | 64.3 (active) |
| MAP2K5 | 3 | 80.3 |
| MAPK3 | 1 | 103 |
| MAPK3 | 2 | 68.4 (active) |
| MAPK3 | 3 | 99.7 |

The list goes on.
| target gene | technical replicate | viability, normalised (%) |
| --- | --- | --- |
| METTL8 | 1 | 53.7 (active) |
| METTL8 | 2 | 60.8 (active) |
| METTL8 | 3 | 56.5 (active) |
| PRC1 | 1 | 54.1 (active) |
| PRC1 | 2 | 52.6 (active) |
| PRC1 | 3 | 59 (active) |
| CHM | 1 | 56.1 (active) |
| CHM | 2 | 65.1 (active) |
| CHM | 3 | 62.4 (active) |
| GRK6 | 1 | 99.8 |
| GRK6 | 2 | 77.1 (active) |
| GRK6 | 3 | 96 |
| KIT | 1 | 57.3 (active) |
| KIT | 2 | 63.2 (active) |
| KIT | 3 | 65.6 (active) |
